{
  "source": "paper doi:10.1101/2023.11.16.567405",
  "binders": {"B1": {"name": "MamJ, magnetosome membrane adaptor protein (protein, UniProt V6F519 1-466)", "chain": "MAKNRRDRGTDLPGDGDQKISTGPEIVSVTVHPSPNLAAAAKPVQGDIWASLLESSPWSANQGGLVETAQPPSAPIRSQDPVPVADLVNRWSQPIWRTAPLAGNAESSEEGVVAPSLTQSDSVLAVSDLVIDVQPETDAEVEVSIEPEPALVEPVIEIEAEAAEVEPEPAPVADLVNRWAQPIWRTAPLAGNAESSEEGVVAPSLTQSDSVLAVSDLVIDVQPEANAEVEVSIEPEPALVEPVIEIEAEAAEVEPEPAPVEPVIEIEAEAAEVEPEPAPVEPVIEIEAEAAEVEPEPAPVEPAIEIEAIRVELEPVLIDEVVELVTEFEYSQAESVASADLIANPAPAESSRLAELLDEAAAIAAPAVAVAVEATRQPNKITASVKKRAPVQEVPVEDLLGGIFGVAGSAVRGVFTIGGGFVDGVVKGGRLVGSNVVAGTRRLAQTIEVSCGSCSSPKCDAEDKNK"}},
  "key": {"[1]": {"molecular_target": "T1, GFP-MmsF fusion protein (Magnetospirillum gryphiswaldense MSR-1) (UniProt A4U547)", "T1 sequence": "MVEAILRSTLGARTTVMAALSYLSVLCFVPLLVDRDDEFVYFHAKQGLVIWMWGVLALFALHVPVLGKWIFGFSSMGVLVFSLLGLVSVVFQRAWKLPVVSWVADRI", "assay": "co-IP"}, "[2]": {"molecular_target": "T2, GFP-MamF fusion protein (Magnetospirillum gryphiswaldense MSR-1) (UniProt Q6NE74)", "T2 sequence": "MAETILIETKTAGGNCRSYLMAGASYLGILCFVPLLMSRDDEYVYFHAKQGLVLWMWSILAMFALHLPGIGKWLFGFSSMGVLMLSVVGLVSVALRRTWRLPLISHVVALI", "assay": "co-IP"}},
  "note": "No constants are given. Whether binding was seen depends on the method and setting. In cells and extracts the contact can be indirect. Some binding calls cover weakened binding; strength is not graded here. Tags and fused reporters may be left off the sequences shown.",
  "data": [
    {"binder": "B1", "values": [
      {"measurement": "binding", "setting": "[1]", "value": "binds weakly"},
      {"measurement": "binding", "setting": "[2]", "value": "no binding"}
    ]}
  ]
}
